Laboratory results reported in patent US20060252930A1 (priority 2003, published 2006).
In brackets after ≈: the same amount, converted by molar mass.

Legend:
Type in all cases: cell-based
Conditions in all cases: for Ratio (enhancing activity): set as 1.0
[1] = system: Candida albicans ATCC 64548; experiment: Enhancing activity of azole antifungal agent, yeast susceptibility test NCCLS M27-A
Method: (§1) Candida albicans ATCC 64548, fluconazole resistant Candida albicans ATCC 64550 and Aspergillus niger ATCC 6275 were used as test organisms.
(§2) Enhancing activity of azole antifungal agent on Candida albicans ATCC 64548 and ATCC 64550 was determined by yeast susceptibility test method, National Committee for Clinical Standard (NCCLS) Standard Method M27-A. Each suspension of inoculating strain was spread over YM agar medium (0.5% yeast extract, 0.5% malt extract, 0.5% peptone, 1% glucose and 1.5% agar) and cultured at 35° C. for 36 hours. Five grown colonies with a diameter 1 mm or more were collected and the colonies were suspended in physiological saline 5 ml. The suspension was further diluted with physiological saline to prepare the test microorganism suspension having McFarland transmittance 0.5. RPMI 1640 medium 70 μl was added into 96 well plastic plate (Corning Inc., U.S.). […] Finally, the test microorganism suspension 100 μl was added and incubated at 35° C. for 24 hours. […] When IC50 value without addition of FKI-1366 substance A, FKI-1366 substance B or FKI-1366 substance C was set as 1.0, a ratio of IC50 with addition of FKI-1366 substance A, FKI-1366 substance B or FKI-1366 substance C was determined as the enhancing activity.

[2] = system: fluconazole resistant Candida albicans ATCC 64550; experiment: microbe, parasite or virus in culture
Method: as §1, §2

[3] = system: Aspergillus niger ATCC 6275; experiment: Enhancing activity of azole antifungal agent, susceptibility test for conidiogenous fungi NCCLS M38-P (Alamar Blue)
Method: as §1
Enhancing activity of azole antifungal agent on Aspergillus niger ATCC 6275 was determined by the drug susceptibility test method for conidiogenous fungi proposed by NCCLS (M38-P). Spores of the strain of Aspergillus niger ATCC 6275 were suspended in the physiological saline to maintain a value at OD 530 nm being 0.09-0.11. The suspension was further diluted 100 times with PRMI1640 medium to prepare inoculating microorganism solution. […] Further, FKI-1366 substance A, FKI-1366 substance B or FKI-1366 substance C, 10 μl, each of which was prepared for maintaining the final concentration of 2.5, 5.0 and 10 μg/ml, was added. Finally, the test microorganism suspension 80 μl was added. Alamar Blue solution (Asahi Glass Co., Japan) 20 μl, a coloring reagent, was added thereto and incubated at 35° C. for 24 hours. […] When IC50 value without addition of FKI-1366 substance A, FKI-1366 substance B or FKI-1366 substance C was set as 1.0, a ratio of IC50 with addition of FKI-1366 substance A, FKI-1366 substance B or FKI-1366 substance C was determined as the enhancing activity.

[4] = Table 1, miconazole alone (control)
[5] = Table 2 (fluconazole), control, azole alone

IC50 ([1]; Candida albicans, ATCC64548, Table 1, miconazole alone (control), 35° C., 24 hours): 11 µg/mL
IC50 ([2]; Candida albicans, ATCC64550, Table 1, miconazole alone (control), 35° C., 24 hours, read-out: IC50 of azole antifungal agent): 0.6 µg/mL (≈ 1.44 µM)
IC50 ([3]; Aspergillus niger, ATCC6275, Table 1, miconazole alone (control), 35° C., 24 hours): 12.5 µg/mL
Compound: Clc1ccc(COC(Cn2ccnc2)c2ccc(Cl)cc2Cl)c(Cl)c1 (stereo not drawn) [miconazole, reference compound]
Ratio (enhancing activity) [1, 4]: 1.0
Ratio (enhancing activity) [1, 5]: 1.0
Ratio (enhancing activity) [2, 4]: 1.0
Ratio (enhancing activity) [2, 5]: 1.0
Ratio (enhancing activity) [3, 4]: 1.0
Ratio (enhancing activity) [3, 5]: 1.0
